Here are results for 6 sequences from PMC4561382, “Aven recognition of RNA G-quadruplexes regulates translation of the mixed lineage leukemia protooncogenes”.

Results from cells or extracts need not show a direct contact. For some of these results: No signal at the amounts used counts as a negative. For some of these results: At least one verdict rests on a figure or table, not on a statement of the authors. For some of these results: Protein sequences can lack the tags named with them. For some of these results: The exact form of at least one protein or probe is not confirmed.

The target in the first data set is Aven (endogenous) (human (HEK293T cells)) (UniProt Q9NQS1). The experiment in a line: pull-down. The settings on record: increasing NaCl washes; RNA folded in 10 mM Tris-acetate pH 7.7, 200 mM K-acetate, 5 mM Mg-acetate (75 C 10 min, 21 C 5 min); peptide assay 1 h at room temperature, washes in this buffer; protein in an extract; label: 3' biotin.
For the sequence “CCAGCAAAACCGGGGACGGGGUCAAAACCGGGGCUGGGGCCCGA [MLL4 G4m]”, the binding result is “no binding”.
On the same count and under the same terms, to “CCAGCGGGGCCGGGGACGGGGUCGGGGCCGGGGCUGGGGCCCGA [MLL4 G4 (267-310)]” belongs “binds”; to “CGGCAAAAAGCAGCGGGGCUAAAAUUCCAGGGGGAGCGG [MLL1 G4m]”, “no binding”.
Regarding “CGGCGGGAAGCAGCGGGGCUGGGGUUCCAGGGGGAGCGG [MLL1 G4 (220-258)]”, the binding result is given as “binds”.
For the sequence “GCUGCAAUGUGGAAAAAGUGGUCGGGUUGCGCAGCG [sc1 G4m (biotin)]”, the binding result is “no binding”.
Regarding “GCUGCGGUGUGGAAGGAGUGGUCGGGUUGCGCAGCG [sc1 G4 (biotin)]”, the binding result is given as “binds”.

For a further data set, the target named is Aven (endogenous, hypomethylated) (human (HEK293T cells)) (UniProt Q9NQS1). Description: pull-down. The settings on record: PRMT1-depleted cells, bound equally well as control; RNA folded in 10 mM Tris-acetate pH 7.7, 200 mM K-acetate, 5 mM Mg-acetate (75 C 10 min, 21 C 5 min); peptide assay 1 h at room temperature, washes in this buffer; protein in an extract; label: 3' biotin.
As to “GCUGCGGUGUGGAAGGAGUGGUCGGGUUGCGCAGCG [sc1 G4 (biotin)]”, the binding result was “binds”.

The next data set concerns the target FLAG-Aven (human) (UniProt Q9NQS1). Description: pull-down. Particulars: RNA folded in 10 mM Tris-acetate pH 7.7, 200 mM K-acetate, 5 mM Mg-acetate (75 C 10 min, 21 C 5 min); peptide assay 1 h at room temperature, washes in this buffer; protein in a lysate after overexpression; residues 1-362; protein details: FLAG; label: 3' biotin.
In the case of “CCAGCGGGGCCGGGGACGGGGUCGGGGCCGGGGCUGGGGCCCGA [MLL4 G4 (267-310)]”, the binding result is reported as “binds”.
Same read-out and setting: to “CGGCGGGAAGCAGCGGGGCUGGGGUUCCAGGGGGAGCGG [MLL1 G4 (220-258)]” belongs “binds”; to “GCUGCGGUGUGGAAGGAGUGGUCGGGUUGCGCAGCG [sc1 G4 (biotin)]”, “binds”.

For a further data set, the target named is T1, FLAG-AvenΔRGG del1-73 (human) (UniProt Q9NQS1).
T1 sequence (looked up): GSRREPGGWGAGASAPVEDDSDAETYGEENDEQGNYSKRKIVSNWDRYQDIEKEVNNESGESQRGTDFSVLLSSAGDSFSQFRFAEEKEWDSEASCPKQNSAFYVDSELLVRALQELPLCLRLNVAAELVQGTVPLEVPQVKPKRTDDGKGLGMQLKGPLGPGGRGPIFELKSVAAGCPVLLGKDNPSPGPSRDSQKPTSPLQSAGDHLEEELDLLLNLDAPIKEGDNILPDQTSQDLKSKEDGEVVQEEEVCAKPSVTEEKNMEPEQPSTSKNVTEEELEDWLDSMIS
The experiment in a line: pull-down. Particulars: RNA folded in 10 mM Tris-acetate pH 7.7, 200 mM K-acetate, 5 mM Mg-acetate (75 C 10 min, 21 C 5 min); peptide assay 1 h at room temperature, washes in this buffer; protein in a lysate after overexpression; residues 74-362; protein details: FLAG; label: 3' ….
As to “CCAGCGGGGCCGGGGACGGGGUCGGGGCCGGGGCUGGGGCCCGA [MLL4 G4 (267-310)]”, the binding result was “no binding”.
Take “CGGCGGGAAGCAGCGGGGCUGGGGUUCCAGGGGGAGCGG [MLL1 G4 (220-258)]”: the binding result is recorded as “no binding”.
Still for that read-out and setting: to “GCUGCGGUGUGGAAGGAGUGGUCGGGUUGCGCAGCG [sc1 G4 (biotin)]” belongs “no binding”.
